T1: Human ANGPTL4(26-161)-FLAG-His6-Avi (human)
T1 sequence (chain, biotin on the C-terminal Avi tag in the biotinylated preparation (ELISA)): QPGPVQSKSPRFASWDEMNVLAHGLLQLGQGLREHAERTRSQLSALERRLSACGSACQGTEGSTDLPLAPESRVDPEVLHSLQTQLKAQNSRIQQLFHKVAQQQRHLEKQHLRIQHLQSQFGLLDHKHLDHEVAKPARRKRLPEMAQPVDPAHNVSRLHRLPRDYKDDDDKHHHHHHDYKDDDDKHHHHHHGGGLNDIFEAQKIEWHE

B1: MOR021798 (antibody, human IgG1, lambda, V domains shown)
VH: QVQLLESGGGLVQPGGSLRLSCAASGFTFSDYALHWVRQAPGKGLEWVSRISYMGSSTYYADSVKGRFTISRDNSKNTLYLQMNSLRAEDTAVYYCAREHYYSSPMGGVAVDNWGQGTLVTVSS
VL: DIVLTQPPSVSGAPGQRVTISCSGSSSNIGYNTVSWYQQLPGTAPKLLIYSNNIRPSGVPDRFSGSKSGTSASLAITGLQAEDEADYYCSSWDFLIKSLVFGGGTKLTVLG
notes: human IgG1
B2: MOR021823 (antibody, human IgG1, kappa, V domains shown)
VH: QVQLLESGGGLVQPGGSLRLSCAASGFTFSSYYLHWVRQAPGKGLEWVSYISGDGSSTYYADSVKGRFTISRDNSKNTLYLQMNSLRAEDTAVYYCARERSYAHDHWGQGTLVTVSS
VL: DIQMTQSPSSLSASVGDRVTITCRASQDIYIDLNWYQQKPGKAPKLLIYAASKLQSGVPSRFSGSGSGTDFTLTISSLQPEDFATYYCQQGYFLPQTFGQGTKVEIKR
notes: human IgG1
B3: MOR021830 (antibody, human IgG1, kappa, V domains shown)
VH: QVQLLESGGGLVQPGGSLRLSCAASGFTFSSYWMHWVRQAPGKGLEWVSGISYDGSSTNYADSVKGRFTISRDNSKNTLYLQMNSLRAEDTAVYYCARDSYIYDLHWGFDNWGQGTLVTVSS
VL: DIQMTQSPSSLSASVGDRVTITCRASQDISSYLNWYQQKPGKAPKLLIYAASRLQSGVPSRFSGSGSGTDFTLTISSLQPEDFATYYCQQSYTHPYTFGQGTKVEIKR
notes: human IgG1
B4: MOR021792 (antibody, human IgG1, lambda, V domains shown)
VH: QVQLLESGGGLVQPGGSLRLSCAASGFTFSDYAMDWVRQAPGKGLEWVSKISYDGSYTYYADSVKGRFTISRDNSKNTLYLQMNSLRAEDTAVYYCARPSMSYYIIPAGFDVWGQGTLVTVSS
VL: DIELTQPPSVSVSPGQTASITCSGDALGVKRASWYQQKPGQAPVLVIYKDNNRPSGIPERFSGSNSGNTATLTISGTQAEDEADYYCSVRTWSMNLYVFGGGTKLTVLG
B5: MOR021800 (antibody, human IgG1, lambda, V domains shown)
VH: QVQLVQSGAEVKKPGESLKISCKGSGYSFSTYWISWVRQMPGKGLEWMGIIDPSNSDTRYSPSFQGQVTISADKSISTAYLQWSSLKASDTAMYYCARVYGYVYMDVWGQGTLVTVSS
VL: DIELTQPPSVSVSPGQTASITCSGDNLGKKYAYWYQQKPGQAPVLVIYDKTKRPSGIPERFSGSNSGNTATLTISGTQAEDEADYYCASYDWYSSSYVFGGGTKLTVLG
notes: human IgG1
B6: MOR021795 (antibody, human IgG1, lambda, V domains shown)
VH: QVQLVQSGAEVKKPGSSVKVSCKASGGTFNSYAISWVRQAPGQGLEWMGGIIPLFGFANYAQKFQGRVTITADESTSTAYMELSSLRSEDTAVYYCARESYDPYAFDVWGQGTLVTVSS
VL: DIELTQPPSVSVSPGQTASITCSGDNLGKYSASWYQQKPGQAPVLVIHQDNNRPSGIPERFSGSNSGNTATLTISGTQAEDEADYYCASRAHSMHVVFGGGTKLTVLG
notes: human IgG1

Results are given in words; binding and its absence hold for the method and conditions named. Some entries that bind do so weakly or less than the wild type. Sequences can lack the tags named with a protein.

The target in the assay is T1, Human ANGPTL4(26-161)-FLAG-His6-Avi (human). Briefly: direct ELISA on streptavidin-coated MSD plate: biotinylated antigen immobilised at 1 nM, antibody at 1 nM, detection with Sulfo-tagged goat anti-human IgG.
B1: the binding result is “binds”.
The value for B2 was “binds”; that for B3 was “binds”.
In the case of B4 it was “binds”; in that of B5, “binds”; in that of B6, “binds”.

For the origin of these results see patent publication US20160108110A1 (Novartis, published 2016).
